# Experimental data from US8283336B2, “Unit dosage for brain health” (N. V. Nutricia, priority 2007, dated 2012).
# For at least one compound, name, drawing or mass did not settle the structure.
# Experiments:
# APP/PS1 mice [1] = experiment: neurodegeneration (amino-cupric staining of neuritic plaques) in APP/PS1 mice fed enriched diets; format: in vivo; details: diet fed 3 months from 3 to 6 months of age, compared to control diet
# Description: (§1) These mice start showing plaques in their brains as early as 4-5 months of age and are considered a good model for AD in scientific literature.
# (§2) The diets were fed for a period of 3 months until the age of 6 months. Thereafter the mice were sacrificed and their brains processed for abeta plaque analyses and neurodegeneration analyses. The brain was cut into thin slices using a vibratome and the slices were stained for abeta using an antibody recognizing human abeta and for neurodegeneration using the amino-cupric staining The total number of plaques in the hippocampus was counted and the total surface of the area covered by plaques (plaque burden) was determined. Total surface area covered with neuritic plaques (staining positive for amino-cupric) was determined to measure the level of neurodegeneration.
# APP/PS1 mice [2] = experiment: abeta plaque burden in hippocampus of APP/PS1 mice fed enriched diets; format: in vivo; details: diet fed 3 months from 3 to 6 months of age, compared to control diet
# Description: as §1, §2
compound,measurement,setting,value
"CC/C=C\C/C=C\C/C=C\C/C=C\C/C=C\C/C=C\CCC(=O)O [DHA, docosahexaenoic acid]",level of neurodegeneration,APP/PS1 mice [1],did not differ from the control
same,plaque burden in the hippocampus,APP/PS1 mice [2],not affected
